These are yes or no findings as the source states them, for the method shown. Some results given as binding are weak or reduced against the parent protein; the word gives no strength. Tags and fused reporters may be left off the sequences shown.
Target: human Galectin-3 (Gal3) (human) (UniProt P17931)
Test: ELISA, FLAG-tagged GLUT on coated Gal3

By UniProt entry, the sequences of proteins in these tests, tags left out. Where a name states a change or a piece, a line headed by the entry shows the natural chain unless it says otherwise.
UniProt P17931: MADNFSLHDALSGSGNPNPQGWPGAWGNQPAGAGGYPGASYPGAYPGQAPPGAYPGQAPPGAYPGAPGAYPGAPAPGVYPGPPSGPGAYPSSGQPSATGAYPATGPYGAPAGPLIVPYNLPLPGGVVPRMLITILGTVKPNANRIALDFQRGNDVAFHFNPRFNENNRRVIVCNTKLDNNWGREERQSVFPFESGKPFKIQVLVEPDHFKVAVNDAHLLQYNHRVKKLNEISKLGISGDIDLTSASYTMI

- binding: binds
B1: GLUT4 protein tagged with FLAG (protein, not shown: small tags and cut ends)
chain: MPSGFQQIGSEDGEPPQQRVTGTLVLAVFSAVLGSLQFGYNIGVINAPQKVIEQSYNETWLGRQGPEGPSSIPPGTLTTLWALSVAIFSVGGMISSFLIGIISQWLGRKRAMLVNNVLAVLGGSLMGLANAAASYEMLILGRFLIGAYSGLTSGLVPMYVGEIAPTHLRGALGTLNQLAIVIGILIAQVLGLESLLGTASLWPLLLGLTVLPALLQLVLLPFCPESPRYLYIIQNLEGPARKSLKRLTGWADVSGVLAELKDEKRKLERERPLSLLQLLGSRTHRQPLIIAVVLQLSQQLSGINAVFYYSTSIFETAGVGQPAYATIGAGVVNTVFTLVSVLLVERAGRRTLHLLGLAGMCGCAILMTVALLLLERVPAMSYVSIVAIFGFVAFFEIGPGPIPWFIVAELFSQGPRPAAMAVAGFSNWTSNFIIGMGFQYVAEAMGPYVFLLFAVLLLGFFIFTFLRVPETRGRTFDQISAAFHRTPSLLEQEVKPSTELEYLGPDEND

— patent US20220411514A1, “ANTI-GAL3 ANTIBODIES AND METHODS OF USE FOR INSULIN RESISTANCE” (TrueBinding, Inc., priority 2021, published 2022)
